Data taken from PubChem BioAssay AID493014 (National Center for Advancing Translational Sciences (NCATS), 2011).
Some of the results follow. Shown are side measurements of this screen, not its main read-out; they come without a call. Compounds called inactive in the main read-out are mostly missing here. Potencies come from curve fits of mixed quality, noted in brackets.

Assay: qHTS Assay to Find Inhibitors of Chronic Active B-Cell Receptor Signaling
Conditions: ABC-DLBCL IkBa-CBG/CBR reporter, luminescence ratio (green luciferase fused to IkBa over red control in TMD8 lymphoma cells), 4 h
In short: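 Doxycycline induced both beetle luciferases in TMD8 lymphoma cells; IKK-driven degradation limits the IkappaBalpha-fused green signal, while red luminescence normalises for cell number and nonspecific effects. Compounds tested up to 46 uM, 4 hrs.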

[1] = measured here: CBR red luminescence, cell number
[2] = measured here: IkBa-CBG green luminescence

Compound	AC50 [1]	AC50 [2]
Cn1cc(C(=O)c2ccc(F)cc2)cc1-c1nc2ccccc2n1C	1.84 µM [rising, partial curve, poor fit]	
CN(C)c1ccc(C(=O)OCC(=O)Nc2cccc(S(=O)(=O)N3CCCC3)c2)cc1	1.84 µM [rising, partial curve, poor fit]	
C[C@H](CO)N1C[C@H](C)[C@@H](CN(C)Cc2ccc(Cl)c(Cl)c2)Oc2c(NS(=O)(=O)c3ccc(F)cc3)cccc2C1=O	32.6 µM [falling, single point]	
CC(C)(C)c1ccc(-c2csc(NNC3=NCCCCC3)n2)cc1	3.26 µM [rising, single point]	
Cc1cccc(C(=O)N(Cc2nc3ccccc3c(=O)[nH]2)C2CCCCC2)c1	20 µM [falling, single point]	
COc1ccc(-c2cc(=O)oc3cc(OC(=O)C4CCCCC4)c(Cl)cc23)cc1		4.11 µM [rising, full curve]
COc1ccccc1Cn1nnc2c(=O)[nH]c(C3CCN(C(=O)c4ccccc4Cl)CC3)nc21	28.2 µM [falling, single point]	
CCOC(=O)c1c(NC(=O)COC(=O)c2cnc(C)cn2)sc(C(=O)N(C)C)c1C	20.6 µM [rising, partial curve, poor fit]	
CCOC(=O)CSc1n[nH]c(NC(=O)c2cccc(C)c2)n1	7.08 µM [falling, full curve, poor fit]	
O=c1[nH]c(=O)n([C@H]2C[C@H](O)[C@@H](CO)O2)cc1C(F)(F)F	0.206 µM [rising, full curve, poor fit]	
O=c1cc(N2CCc3ccccc32)[nH]c(=O)n1-c1ccccc1	11.6 µM [falling, partial curve, poor fit]	
Cc1cc(Cl)ccc1OC(C)C(=O)NCCc1ccc2c(c1)OCCO2 (stereo not given)	23.1 µM [falling, single point]	
CCCCCC1=CCC/C1=N\NC(=O)c1ccc2c(c1)OCO2	25.1 µM [falling, single point]	
Cc1cc(C)c2nc(N3CCN(C(=O)c4ccco4)CC3)sc2c1	3.26 µM [rising, full curve, poor fit]	
CN(C(=O)c1cccc(COc2ccc(Cl)cc2Cl)c1)c1ccccc1	0.82 µM [rising, full curve]	
CCCC(=O)Nc1nnc(S(=O)(=O)N(CC(C)C)c2ccccc2)s1	3.55 µM [falling, single point]	
COc1ccc(-c2cc3ncc(C(C)=O)c(C)n3n2)cc1	0.316 µM [rising, full curve, poor fit]	
COc1ccccc1CCC(=O)OCC(=O)NC1CCCC1	29.1 µM [rising, single point]	
O=C(/C=C/c1ccc2c(c1)OCO2)NCCSCc1c(Cl)cccc1Cl	5.8 µM [falling, full curve]	
COc1ccc(CNC(=O)c2ccc(-c3ccccc3)cc2)cc1	11.2 µM [falling, partial curve, poor fit]	
Cc1cc(C)c(S(=O)(=O)NCC(=O)NCc2cc(=O)n(C)c(=O)n2C)c(C)c1	4.47 µM [rising, partial curve, poor fit]	

Compound	AC50 [1]	AC50 [2]
Cc1c(C(=O)Nc2cccc(Cl)c2)c2ccccn2c1CCc1ccncc1	3.66 µM [rising, single point]	
CCNC(=S)NNC(=O)c1csc(C)c1	8.2 µM [falling, partial curve, poor fit]	
O=C(COC(=O)c1cccc(S(=O)(=O)N2CCOCC2)c1)Nc1ccc2c(c1)OCO2	0.708 µM [rising, full curve, poor fit]	
CCOC(=O)C1=C(COC(=O)c2ccccc2[N+](=O)[O-])NC(=O)NC1C (stereo not given)	0.731 µM [rising, partial curve, poor fit]	
CCn1ccnc1CN1CCN(CC(C)C)C(CCO)C1 (stereo not given)	6.31 µM [rising, single point]	
[O-][n+]1c2cc(C(F)(F)F)ccc2c2n1CCN=C2c1ccc(Cl)cc1	7.31 µM [falling, partial curve, poor fit]	
COc1cc(Br)c(-c2sc(Nc3ccccc3)n[n+]2-c2ccc(F)cc2)cc1OC	15.8 µM [falling, single point]	
Cc1[nH]c2ccccc2c1CN1CCC(Cc2ccccc2)CC1	35.5 µM [falling, single point]	
Cc1ccc(C(=O)c2cc3c(cc2N)OCCO3)cc1	25.9 µM [falling, single point]	
CCc1ccc(NC(=O)c2ccc(C3SCC(=O)N3CCc3ccccc3)cc2)cc1 (stereo not given)	29.1 µM [falling, single point]	
COc1ccc(C(=O)NCCSCc2ccccc2)cc1OC	3.55 µM [falling, partial curve, poor fit]	
CCOC(=O)c1sc(=S)n(C)c1NC(=O)c1cccc(Br)c1	12.6 µM [falling, single point]	
CC1CCCCC1NC(=S)NC(=O)c1sc2ccccc2c1Cl (stereo not given)	0.316 µM [falling, full curve]	
Cc1cc(C(=O)CCl)c(C)n1CC1COc2ccccc2O1 (stereo not given)	22.4 µM [falling, single point]	
Cc1ccc2c(=O)n3c(nc2c1)C(Cc1ccccc1)NC(=O)c1ccc(Cl)cc1-3 (stereo not given)	0.461 µM [rising, full curve, poor fit]	
CSc1ccc(COC(=O)c2cc([N+](=O)[O-])ccc2N2CCOCC2)cc1	2.31 µM [rising, full curve]	2.91 µM [falling, partial curve]
O=S(=O)(c1ccccc1)N1N=C(c2ccc(Cl)cc2)CC1c1ccco1 (stereo not given)	25.9 µM [falling, partial curve, poor fit]	
CCOC(=O)N1CCC(NC(=O)CCN2C(=O)C3C4C=CC(C4)C3C2=O)CC1 (stereo not given)	20.6 µM [rising, single point]	
O=[N+]([O-])c1cccc(C(=Nc2ccccc2)NO)c1	0.461 µM [falling, full curve, poor fit]	
Cc1noc(C)c1CCC(=O)N1CCCC(CCC(=O)NCc2ccccc2F)C1 (stereo not given)	7.08 µM [rising, partial curve, poor fit]	
O=C(Nc1ncc([N+](=O)[O-])s1)C1CC(=O)N(c2ccc(F)cc2)C1 (stereo not given)	7.08 µM [rising, full curve, poor fit]	

Gathered by group, those above with an aryl thioether with sulfur outside any ring
Compound	AC50 [1]	AC50 [2]
CCOC(=O)CSc1n[nH]c(NC(=O)c2cccc(C)c2)n1	7.08 µM [falling, full curve, poor fit]	
CSc1ccc(COC(=O)c2cc([N+](=O)[O-])ccc2N2CCOCC2)cc1	2.31 µM [rising, full curve]	2.91 µM [falling, partial curve]

Next part

Compound	AC50 [1]	AC50 [2]
Cc1nc(-c2ccc(S(=O)(=O)N3CCCCCC3)cc2)cs1	3.16 µM [rising, full curve]	
Cc1csc2ncnc(NNC(=O)c3ccc(Cl)cc3)c12		17.8 µM [falling, single point]
CN(C)S(=O)(=O)c1ccc(NC(=O)N2CCN(c3ccccc3Cl)CC2)cc1	13 µM [rising, partial curve, poor fit]	
CCCCCC(=O)NC(=S)Nc1ccc(Br)cc1C	20.6 µM [rising, single point]	
CS(=O)(=O)c1cccc(C(=O)OCCCC(=O)c2ccccc2)c1	1.46 µM [rising, partial curve, poor fit]	
C=CCNc1cc(C)oc(=O)c1C(=O)CCC	9.2 µM [rising, partial curve, poor fit]	
CCOC(=O)c1sc2c(c1C)c(=O)n(Cc1ccccc1)c(=O)n2CCN(C)C	2.24 µM [falling, partial curve]	
COC(=O)c1ccc(=O)c2nc3/c(=C/O)c(O)cc(=O)c3[nH]c12	20 µM [rising, partial curve, poor fit]	
Cc1ccc(/C=C/C(=O)Nc2ccc(S(N)(=O)=O)cc2)o1	7.08 µM [falling, partial curve]	
COc1ccc(N/C(C)=C/C(=O)c2ccccc2)cc1	2.06 µM [rising, partial curve, poor fit]	
COc1cc(C)c(NC(=O)C(=S)NCc2ccccc2)cc1C	10 µM [rising, partial curve]	
COc1cc(/C=N/NC(=O)c2ccc(NS(=O)(=O)c3cccs3)cc2)cc(OC)c1O	16.4 µM [falling, partial curve]	
Cc1cc(-c2nnc(-c3cccc(Cl)c3)o2)no1	7.08 µM [rising, full curve, poor fit]	
CC(/C=C/c1cccc([N+](=O)[O-])c1)=N\NC(=O)c1ccncc1	32.6 µM [falling, single point]	
CC(=O)NCCSC(=O)c1ccc(F)cc1	23.1 µM [falling, single point]	
COc1ccc(C)cc1N(CC(=O)NCCSCc1ccco1)S(=O)(=O)c1ccc(C)cc1	35.5 µM [falling, single point]	
COc1ccc(NS(=O)(=O)c2ccc(NS(=O)(=O)c3ccc(SC)cc3)cc2)c(OC)c1	29.1 µM [falling, single point]	
COc1ccc(-c2sc3cc(OC)c(OC)cc3c2C#CC(C)(C)O)cc1	16.4 µM [rising, partial curve]	18.4 µM [falling, partial curve, poor fit]
CC(C)C(=O)Nc1ccc2c3c(cccc13)CC2	35.5 µM [rising, single point]	
CCN(CC)C(=O)Oc1ccc(Br)cc1C(=O)Nc1ccc(F)c(Cl)c1	7.08 µM [falling, partial curve, poor fit]	
COc1cccc(NC(=O)CSC2=C(C#N)C(c3ccco3)C3=C(CCCC3=O)N2)c1 (stereo not given)	20.6 µM [falling, single point]	
